Data from patent EP1167382A1, “INFLUENZA VIRUS HEMAGGLUTININ-BINDING PEPTIDES” (OTSUKA PHARMACEUTICAL CO., LTD., priority 1999, dated 2000).
Part of at least one peptide drawing is inferred or uncertain, most often the ends. Where no end group is shown, it is not given here.

Test system: HA (H3N2)
Assay type: binding, influenza virus A/Wuhan/359/95 (H3N2)

ARLSPTMVHPNGAQP [A-1 peptide, ARLSPTMVHPNGAQP]
inhibitory effect on the binding of hemagglutinin to GM3: inhibits the binding of hemagglutinin to GM3 dose-dependently
